Assay results reported in US20070238638.

Chains of the proteins cited; added tags and fusions are not shown. Chains listed by the source or under a name are the forms on record and can include a tag or linker. Residues count along the entry.
UniProt P42224, 2-750: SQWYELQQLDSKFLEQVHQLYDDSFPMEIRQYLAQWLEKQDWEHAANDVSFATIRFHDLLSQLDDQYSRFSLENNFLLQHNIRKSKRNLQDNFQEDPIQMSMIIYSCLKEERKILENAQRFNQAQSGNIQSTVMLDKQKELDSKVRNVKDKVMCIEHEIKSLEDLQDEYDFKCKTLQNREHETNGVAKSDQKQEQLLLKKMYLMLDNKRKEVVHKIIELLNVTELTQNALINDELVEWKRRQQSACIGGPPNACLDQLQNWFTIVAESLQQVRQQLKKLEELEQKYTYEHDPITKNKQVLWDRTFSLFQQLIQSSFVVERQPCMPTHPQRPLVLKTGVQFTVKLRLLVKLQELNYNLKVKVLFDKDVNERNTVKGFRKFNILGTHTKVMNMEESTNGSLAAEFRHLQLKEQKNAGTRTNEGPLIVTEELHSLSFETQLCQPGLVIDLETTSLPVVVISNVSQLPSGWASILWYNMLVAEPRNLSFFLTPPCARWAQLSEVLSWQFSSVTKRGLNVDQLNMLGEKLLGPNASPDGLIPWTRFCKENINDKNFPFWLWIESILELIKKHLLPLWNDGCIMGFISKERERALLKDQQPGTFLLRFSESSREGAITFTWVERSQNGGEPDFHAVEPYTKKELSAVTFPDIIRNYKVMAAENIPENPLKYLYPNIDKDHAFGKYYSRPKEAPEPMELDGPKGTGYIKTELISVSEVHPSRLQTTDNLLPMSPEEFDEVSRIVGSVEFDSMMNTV
NF-kappaB p50/p65 heterodimer (Homo sapiens), one chain, as listed by the source: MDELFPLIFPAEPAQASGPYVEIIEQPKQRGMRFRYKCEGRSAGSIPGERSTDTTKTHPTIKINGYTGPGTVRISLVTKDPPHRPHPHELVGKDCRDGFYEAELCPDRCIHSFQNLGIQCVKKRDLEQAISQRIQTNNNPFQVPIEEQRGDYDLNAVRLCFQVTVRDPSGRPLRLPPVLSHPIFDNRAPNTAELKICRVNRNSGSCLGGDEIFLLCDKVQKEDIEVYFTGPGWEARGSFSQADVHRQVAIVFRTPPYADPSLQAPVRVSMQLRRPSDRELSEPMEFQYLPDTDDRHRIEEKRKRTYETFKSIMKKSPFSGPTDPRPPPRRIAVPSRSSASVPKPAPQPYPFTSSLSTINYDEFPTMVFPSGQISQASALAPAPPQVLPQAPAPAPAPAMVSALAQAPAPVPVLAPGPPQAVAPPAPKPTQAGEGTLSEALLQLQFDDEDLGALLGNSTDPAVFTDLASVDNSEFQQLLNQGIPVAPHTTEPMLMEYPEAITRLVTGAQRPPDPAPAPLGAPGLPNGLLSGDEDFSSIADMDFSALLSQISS

Experiments:
Test in all cases: EMSA
[1] = system: NF-kappaB p50/p65 heterodimer (Homo sapiens); conditions: protein in an extract, protein details: endogenous, HT-29 nuclear extract, label: 32P
[2] = molecular target: T1, NF-kappaB p50 homodimer (Homo sapiens) (UniProt P19838); conditions: protein in an extract, protein details: endogenous, HT-29 nuclear extract, label: 32P
T1 sequence (looked up, limits assumed): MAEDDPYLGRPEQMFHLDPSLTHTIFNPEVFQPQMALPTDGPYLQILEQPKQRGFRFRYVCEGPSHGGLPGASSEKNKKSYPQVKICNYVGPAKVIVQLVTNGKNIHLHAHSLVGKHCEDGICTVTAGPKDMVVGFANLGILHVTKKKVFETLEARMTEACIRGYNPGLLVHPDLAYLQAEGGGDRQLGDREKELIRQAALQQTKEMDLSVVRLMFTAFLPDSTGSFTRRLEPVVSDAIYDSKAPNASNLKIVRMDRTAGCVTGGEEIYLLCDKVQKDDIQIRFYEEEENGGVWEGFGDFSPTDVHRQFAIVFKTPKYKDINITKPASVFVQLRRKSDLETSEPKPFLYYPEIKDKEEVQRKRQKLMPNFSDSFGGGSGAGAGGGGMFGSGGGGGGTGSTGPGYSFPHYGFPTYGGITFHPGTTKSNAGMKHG

STAT1 (Homo sapiens) = STAT1 (Homo sapiens) (UniProt P42224); conditions: anti-STAT1 abolished C1; IFN-gamma only, not IFN-alpha, IFN-beta or poly(I-C); protein in an extract; label: 32P
p53 wild type = p53 wild type (UniProt P04637); conditions: in presence of anti-p53 antibody; protein in a lysate after overexpression; protein details: baculovirus, Sf9 extract; label: 32P
IRF-1 (Homo sapiens) = molecular target: T2, IRF-1 (Homo sapiens) (UniProt P10914); conditions: protein in an extract; label: 32P
T2 sequence (looked up, limits assumed): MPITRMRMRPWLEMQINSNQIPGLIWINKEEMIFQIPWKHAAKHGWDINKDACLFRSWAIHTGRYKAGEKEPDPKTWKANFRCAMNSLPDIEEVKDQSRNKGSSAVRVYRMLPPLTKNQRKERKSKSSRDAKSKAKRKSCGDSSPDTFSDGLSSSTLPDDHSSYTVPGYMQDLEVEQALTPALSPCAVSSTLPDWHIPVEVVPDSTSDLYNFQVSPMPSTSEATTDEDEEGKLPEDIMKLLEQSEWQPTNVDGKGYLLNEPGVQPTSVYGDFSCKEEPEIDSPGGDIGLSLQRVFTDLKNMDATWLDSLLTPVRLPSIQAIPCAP

IRF-2 (Homo sapiens) = molecular target: T3, IRF-2 (Homo sapiens) (UniProt P14316); conditions: supershift; IFN-gamma treated; protein in an extract; label: 32P
T3 sequence (looked up, limits assumed): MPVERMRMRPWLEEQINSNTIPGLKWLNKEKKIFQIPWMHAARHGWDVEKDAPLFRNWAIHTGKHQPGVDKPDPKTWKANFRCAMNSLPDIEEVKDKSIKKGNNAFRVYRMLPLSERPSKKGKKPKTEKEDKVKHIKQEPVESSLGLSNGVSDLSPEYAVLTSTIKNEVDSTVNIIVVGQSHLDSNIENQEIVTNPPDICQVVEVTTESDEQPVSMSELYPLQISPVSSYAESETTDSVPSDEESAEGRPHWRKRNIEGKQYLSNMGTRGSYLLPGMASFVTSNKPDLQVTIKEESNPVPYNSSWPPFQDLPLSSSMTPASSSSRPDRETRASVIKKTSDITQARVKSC

[3] = poly(I-C) treated only, no complex after IFN-gamma, less than kappaB1

Sequence: AGTAGAGACGGGGTTTCACCATGTTA (double strand) [Bak kappaB2]
- binding result [1, 3]: binds more weakly
- binding result [2, 3]: binds more weakly

Sequence: CAGGTTCAAGGGATTCTCCTGCCTCA (double strand) [Bak kappaB1]
- binding result ([1]; C2 by supershift, IFN-gamma or poly(I-C) treated, poly(I-C) stronger): binds
- binding result ([2]; C1 by supershift, IFN-gamma or poly(I-C) treated, poly(I-C) stronger): binds

Sequence: CGCCCATTCCTGGAAACTGG (double strand) [Bak GAS]
- binding result (STAT1 (Homo sapiens)): binds

Sequence: GATCCAAAGTGGGCGGGACATGCTCCTGGGCCTGGCCCACCCAGATCACCCCTG / GATCCAGGGGTGATCTGGGTGGGCCAGGCCCAGGAGCATGTCCCGCCCACTTTG [Bak p53 site]
- binding result (p53 wild type): binds

Sequence: GCAAACTGAAAGTGAAACAGCT (double strand) [Bak ISRE]
- binding result (IRF-1 (Homo sapiens)): binds
- binding result (IRF-2 (Homo sapiens)): binds

Results from cells or extracts need not show a direct contact. For some assays here: The comparison behind a weaker result is the experiment's own reference, which may not be listed here. For some assays here: Protein sequences can lack the tags named with them.
